Results deposited as PubChem BioAssay AID504786 (Drosophila RNAi Screening Center, 2011).
The screen tested about 21,000 reagents; this is a random part of those with a known target gene and a result. 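Primary screen; positive scores mean lost reporter signal, so the sign may be inverted from the usual convention.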 Names joined by + are all predicted targets of the reagent.

- Test: 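Knock-downs reducing HIF reporter induction by the iron chelator DFO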 (primary screen)
- Cells: Drosophila S2 cells with a stable HIF luciferase reporter
- Knock-down reagent: long dsRNA against Drosophila genes, about 0.2 µg dsRNA per well of a 384-well plate
- Timing: three days of knock-down, then 20 h of DFO before reading
- Challenge: desferrioxamine (DFO) at 100 µM, an iron chelator that mimics hypoxia, for 20 h
- Detection: 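HIF reporter luminescence in cells given 100 µM DFO for 20 h, using the mouse ldh-a hypoxia-response element, scored as per-plate z-scores; higher means greater loss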
- Reading the numbers: z-score: higher = stronger loss of HIF reporter signal

Gene | dsRNA | z-score, replicate 1 | z-score, replicate 2 | z-score, replicate 3 | z-score, replicate 4
CG32750 | DRSC18848 | -0.2 | 0.2 | – | –
CG11698 | DRSC14355 | -0.7 | -0.3 | – | –
CG16756 | DRSC18115 | -0.1 | 0 | – | –
Or10a | DRSC20264 | -0.2 | 0.1 | – | –
CG13558 | DRSC04196 | -0.4 | -0.2 | – | –
CG13954 | DRSC06442 | -0.3 | -0.5 | – | –
CG32147 | DRSC09346 | -0.6 | -0.1 | – | –
LManI | DRSC02838 | -0.3 | -0.2 | – | –
CG13545 | DRSC04187 | -0.3 | -0.2 | – | –
RecQ4 | DRSC11265 | 0.2 | 0 | – | –
Pcif1 | DRSC11655 | -0.4 | -0.7 | – | –
Sgf29 | DRSC04076 | -0.3 | -0.1 | – | –
bsf | DRSC02035 | 0.1 | 0.5 | – | –
Mpc1 | DRSC14770 | -0.2 | -0.1 | – | –
Polr1H | DRSC14594 | -0.1 | 0.5 | – | –
Amacr | DRSC03198 | -0.3 | -0.3 | – | –
Mpi | DRSC16417 | -0.1 | -0.4 | – | –
CG13127 | DRSC02223 | -0.1 | 0 | – | –
Jarid2 | DRSC10372 | -0.3 | -0.6 | – | –
Gle1 | DRSC06485 | -0.3 | -0.4 | – | –
ND-B14.5B | DRSC00346 | -0.3 | -0.4 | – | –
Vmat | DRSC06961 | -0.4 | -0.8 | – | –
Vmat | DRSC06962 | -0.3 | -0.4 | – | –
CG13894 | DRSC08364 | 1.5 | 0.2 | – | –
Prx1 | DRSC10741 | -0.1 | 1.6 | – | –
CG6674 | DRSC10692 | -0.1 | 0 | – | –
CG6118 | DRSC15968 | -0.3 | 0.2 | – | –
Nup58 | DRSC16235 | 1 | 0.8 | – | –
CG43339 + CG43338 | DRSC02466 | -0.4 | -0.5 | – | –
CG2875 | DRSC18231 | -0.2 | 0 | – | –
ana | DRSC07579 | -0.3 | -0.7 | – | –
CG5565 | DRSC00690 | 0 | -0.3 | – | –
ppk17 | DRSC02252 | 2.5 | -0.2 | – | –
Rpn1 | DRSC11274 | 5.8 | 5 | – | –
RpS10b | DRSC19561 | 0 | 5.1 | 0.3 | 2.1
l(3)mbt | DRSC16983 | -0.4 | 0.3 | – | –
CG32462 | DRSC11851 | -0.3 | -0.6 | – | –
Srr | DRSC16382 | -0.2 | -0.5 | – | –
CG11110 | DRSC06037 | 0.1 | -0.4 | – | –
Loxl2 | DRSC04469 | -0.2 | 0.4 | – | –
CG15449 | DRSC20521 | -0.2 | 0.5 | – | –
CG34348 | DRSC19425 | -0.2 | -0.7 | – | –
CG34348 | DRSC19644 | -0.3 | -0.5 | – | –
PLCXD | DRSC02427 | -0.3 | -0.5 | 0.1 | -0.2
msd1 | DRSC08383 | -0.2 | 0 | – | –
mus301 | DRSC10939 | 0.3 | 0.3 | – | –
Ctr1C | DRSC15089 | 0 | -0.4 | – | –
UbcE2M | DRSC10828 | -0.5 | -0.6 | – | –
CG15919 | DRSC06594 | -0.7 | -0.4 | – | –
cyc | DRSC11337 | -0.3 | 0.1 | – | –
CG31121 | DRSC15361 | -0.1 | -0.4 | – | –
CG31121 | DRSC15363 | -0.2 | -0.3 | – | –
mIF2 | DRSC14510 | -0.2 | -0.3 | – | –
MFS15 | DRSC06523 | -0.2 | 0 | – | –
CG14442 | DRSC17935 | -0.3 | -0.6 | – | –
CG4950 | DRSC10463 | -0.3 | -0.5 | – | –

Not a retest: entries from further up.
Gene | dsRNA | z-score, replicate 1 | z-score, replicate 2 | z-score, replicate 3 | z-score, replicate 4
CG11110 | DRSC06037 | 0.1 | -0.4 | – | –
Loxl2 | DRSC04469 | -0.2 | 0.4 | – | –
CG15449 | DRSC20521 | -0.2 | 0.5 | – | –
CG34348 | DRSC19425 | -0.2 | -0.7 | – | –
CG34348 | DRSC19644 | -0.3 | -0.5 | – | –
PLCXD | DRSC02427 | -0.3 | -0.5 | 0.1 | -0.2
msd1 | DRSC08383 | -0.2 | 0 | – | –
